Laboratory results reported in patent publication US20210292397A1 (LA TROBE UNIVERSITY, published 2021).
These are yes or no findings as the source states them, for the method shown. For some assays here: A result given as binding can be weak or reduced; the word gives no strength.

What was measured:
[1] = target: Laminin (Homo sapiens); assay: ELISA, absorbance at 405 nm, n=9, PBS as control
[2] = target: C-term heparin (Homo sapiens); assay: ELISA of fibronectin fragments and full-length fibronectin with UpaB

B1: UpaB α-domain (α^UpaB) from UPEC strain CFT073 (other)
chain: TDSTVSTDPVTLNTEKTTLDQDVVINGDNKITAVTIETSDSDKDLNVTFGGHDITAASTVNQDFVEGVKVSGNKNVVINATDSTITAQGEGTYVRTAMVIDSTGDVVVNGGNFVAKNEKGSATGISLEATTGNNLTLNGTTINAQGNKSYSNGSTAIFAQKGNLLQGFDGDATDNITLADSNIINGGIETIVTAGNKTGIHTVNLNIKDGSVIGAANNKQTIYASASAQGAGSATQNLNLSVADSTIYSDVLALSESENSASTTTNVNMNVARSYWEGNAYTFNSGDKAGSDLDINLSDSSVWKGKVSGAGDASVSLQNGSVWNVTGSSTVDALAVKDSTVNITKATVNTGTFASQNGTLIVDASSENTLDISGKASGDLRVYSAGSLDLINEQTAFISTGKDSTLKATGTTEGGLYQYDLTQGADGNFYFVKNTHKASNASSVIQAMAAAPANVANLQADTL
notes: also called α^UPaB (native)
B1 was tested, and the binding [1] was “binds” and the binding [2] was “no binding”.
